# Measurements from PubChem BioAssay AID504444 (National Center for Advancing Translational Sciences (NCATS), 2011).
# The whole screen tested about 360,000 compounds, of which about 7,500 (2.1%) were called active. This list was built around the results that the source calls inconclusive (neither active nor inactive); the mix of calls is not that of the screen. The call rests on the fitted dose curve; in most records, active means well fitted inhibition curve with a large enough effect; inconclusive means small, poorly fitted or top-dose-only effect, or effect the other way; inactive means flat fitted curve, though single readings scatter. Potencies beside an inconclusive call are fits to weak or partial responses and may not hold up.
# Assay: Nrf2 qHTS screen for inhibitors; further: nearly all actives have a fitted effect of over 60% in size
# Settings: A549 ARE-Fluc reporter, luciferase luminescence, 18-24 h; series mostly up to 46 µM
# Procedure, shortened: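 Nrf2 function is reported as luminescence of an ARE-controlled luciferase in A549 cells. Compounds were tested at several concentrations, and a CellTiter-Fluor read on the same wells flagged cytotoxicity.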
# Potency means the concentration at half of the fitted maximal effect.
row,Compound,Potency
1,CCC(=O)c1ccc(OCC(=O)N2CCN(S(=O)(=O)c3ccc(Cl)s3)CC2)cc1,"inconclusive: 20.6 µM [falling, single point]"
2,O=C(CSc1ccc2c(c1)OCCO2)Nc1ccc(Br)cc1,active: 23.1 µM
3,CCCN(CCC)C(=S)NC(=O)c1ccc(Cl)cc1Cl,"inconclusive: 23.1 µM [falling, single point]"
4,CCCOCc1ccc(O)c2ncccc12,"inconclusive: 0.259 µM [activator, full curve, poor fit]"
5,O=C(COC(=O)C1CCN(S(=O)(=O)c2cccs2)CC1)NCc1ccccc1,"inconclusive: 1.46 µM [activator, partial curve, poor fit]"
6,CCN(CC)S(=O)(=O)c1cccc(C(=O)Nc2cccc(C)c2)c1,"inconclusive: 4.61 µM [activator, full curve, poor fit]"
7,CN1C(=O)CSc2ccc(NC(=O)NCCC3=CCCCC3)cc21,"inconclusive: 20.6 µM [falling, single point]"
8,COc1cc(CN2CCCCC2C(=O)Nc2ccc(Oc3ccccc3)nc2)ccc1O (configuration not stated),"inconclusive: 20.6 µM [activator, partial curve, poor fit]"
9,COc1ccc(Cn2c(O)c(C=Nc3ccc(OC)cc3)c3ccccc3c2=O)cc1,"inconclusive: 2.06 µM [falling, full curve, poor fit]"
10,CCOC(=O)c1ccc(NC(=O)Cn2nc3c4ccccc4n(Cc4cccc(F)c4)cc-3c2=O)cc1,"inconclusive: 29.1 µM [activator, single point]"
11,Cc1ccccc1Nc1cc(C(=O)NCc2ccco2)c2ccccc2n1,inactive
12,COc1ccc(C(=O)Nc2ccc(NC(=O)c3ccccc3OC)nc2)cc1,"inconclusive: 6.51 µM [activator, single point]"
13,CC(=O)c1ccc(NC(=S)Nc2cccc3cnccc23)cc1,"inconclusive: 32.6 µM [falling, single point]"
14,CCCNc1nc2ccccc2c(=O)[nH]1,"inconclusive: 13 µM [falling, partial curve, poor fit]"
15,Cc1ccc(N2CCN(C(=O)c3nn(C)c4c3CS(=O)(=O)c3ccccc3-4)CC2)c(C)c1,inactive
16,CCCCc1ccc(Nc2ncccc2C#N)cc1,"inconclusive: 20.6 µM [activator, partial curve, poor fit]"
17,O=C(C=Cc1cccs1)c1ccc(Cl)s1,inactive
18,O=C(Nc1ccc(F)cc1F)C1CCN(c2ncccn2)CC1,inactive
19,CC(C)CCN(C(=O)CNC(=O)c1ccco1)C(C(=O)NC1CCCCC1)c1ccco1 (configuration not stated),"inconclusive: 7.31 µM [falling, partial curve, poor fit]"
20,CCOC(=O)C1(CCc2ccccc2)CCN(C(=O)c2occc2C)CC1,inactive
21,COc1ccc2cc(-c3nc4ccccc4n3C)c(=O)oc2c1,"inconclusive: 6.51 µM [activator, partial curve]"
22,O=C(CN1CCN(c2nc(-c3ccccc3)cs2)CC1)NNC(=O)c1ccc(Br)cc1,inactive
23,COc1ccc2[nH]c(C(=O)N(Cc3ccccn3)Cc3ccccn3)cc2c1,"inconclusive: 14.6 µM [falling, partial curve, poor fit]"

# 4 entries picked at random from those above:
row,Compound,Potency
21,COc1ccc2cc(-c3nc4ccccc4n3C)c(=O)oc2c1,"inconclusive: 6.51 µM [activator, partial curve]"
5,O=C(COC(=O)C1CCN(S(=O)(=O)c2cccs2)CC1)NCc1ccccc1,"inconclusive: 1.46 µM [activator, partial curve, poor fit]"
1,CCC(=O)c1ccc(OCC(=O)N2CCN(S(=O)(=O)c3ccc(Cl)s3)CC2)cc1,"inconclusive: 20.6 µM [falling, single point]"
23,COc1ccc2[nH]c(C(=O)N(Cc3ccccn3)Cc3ccccn3)cc2c1,"inconclusive: 14.6 µM [falling, partial curve, poor fit]"

# Next part

row,Compound,Potency
1,Cc1csc2ncc(C(=O)Nc3ccc4c(c3)OCCO4)c(=O)n12,"inconclusive: 1.3 µM [activator, partial curve, poor fit]"
2,CCCN1CN(Cc2ccco2)c2nc3ccccc3n2C1,"inconclusive: 18.4 µM [activator, single point]"
3,CCOC(=O)C1=CC(=O)CC(C)(C)O1,"inconclusive: 10.3 µM [activator, partial curve, poor fit]"
4,O=C(/C=C/c1ccco1)NC(=S)Nc1ccc(C(=O)O)cc1,"inconclusive: 23.1 µM [activator, partial curve, poor fit]"
5,Cc1ccc(C)c(N2CCN(c3ncnc4c3nc3n4CCCC3)CC2)c1,"inconclusive: 25.9 µM [activator, single point]"
6,COc1ccc(Br)cc1/C=C/C(=O)Nc1c(C)cccc1C,"inconclusive: 25.9 µM [falling, single point]"
7,COc1cc2c(cc1NC(=O)C(C)Sc1ccc(NC(C)=O)cc1)oc1ccccc12 (configuration not stated),"inconclusive: 18.4 µM [falling, single point]"
8,Nc1nc(OCC2CCCCC2)c2[nH]cnc2n1,active: 18.4 µM
9,O=C(Nc1cc([N+](=O)[O-])ccc1C(=O)Nc1cccnc1)c1ccccc1,"inconclusive: 18.4 µM [falling, partial curve, poor fit]"
10,COc1ccc(CCN(C)C(=O)COC(=O)/C=C/c2ccc(C)o2)cc1OC,inactive
11,Cc1cc(OCC(=O)Nc2ccc(N3CCN(C(=O)c4ccco4)CC3)cc2)cc(C)c1Cl,active: 8.2 µM
12,Oc1ccccc1CNCCCN1CCOCC1,inactive
13,Cc1ccc(Cl)cc1-c1ccc(C=Nc2ccc(N3CCOCC3)cc2)o1,inactive
14,COc1ccc(/C=N/NC(=O)CCCOc2ccc(Cl)cc2Cl)cc1,"inconclusive: 20.6 µM [falling, single point]"
15,COCCSc1nnc(NC(=O)c2ccco2)s1,"inconclusive: 25.9 µM [activator, single point]"
16,CCOc1ccc(S(=O)(=O)Nc2ccccc2SC)c2cccnc12,"inconclusive: 32.6 µM [falling, partial curve, poor fit]"
17,Cc1cc(NC(=O)CCc2nc3cccnc3n2-c2ccccc2)ccc1Br,"inconclusive: 29.1 µM [falling, single point]"
18,COc1cc(OC)cc(-c2cc3nc(C)c(CCC(=O)NCCc4cccc(C)c4)c(C)n3n2)c1,active: 10.3 µM
19,COc1ccc(C(=O)NCCc2ccc(S(N)(=O)=O)cc2)cc1OC,inactive
20,O=C(Cn1cnc2c(nnn2Cc2ccccc2)c1=O)NCc1ccccc1Cl,"inconclusive: 11.6 µM [activator, partial curve, poor fit]"
21,COc1cc(NC(=O)Cn2nc(C(F)(F)F)c3c2CCC3)cc(OC)c1OC,"inconclusive: 29.1 µM [falling, single point]"
22,COc1ccc(OC)c(CNC(=O)c2ccc(N3Cc4ccccc4Oc4ncccc43)s2)c1,"inconclusive: 29.1 µM [activator, single point]"
23,Cc1cc(C)cc(C(=O)Nc2cccc(NC(=O)c3ccco3)c2)c1,"inconclusive: 4.11 µM [falling, full curve]"

row,Compound,Potency
1,CSCCC(NC(=O)c1occc1C)C(=O)O (configuration not stated),inactive
2,CC(=O)c1cccc(NC(=O)Cc2coc3cc4c(cc23)CCC4)c1,"inconclusive: 23.1 µM [falling, partial curve, poor fit]"
3,COc1ccccc1OCc1ccc(C(=O)Nc2ccncc2)o1,"inconclusive: 14.6 µM [falling, partial curve, poor fit]"
4,COCCCn1c(=O)c2sccc2n2c(CCCC(=O)NCC3CCCO3)nnc12 (configuration not stated),"inconclusive: 2.31 µM [activator, partial curve]"
5,O=C(Nc1ccc(C(F)(F)F)cc1)c1ccc2nc[nH]c2c1,"inconclusive: 3.66 µM [activator, partial curve, poor fit]"
6,O=C1c2ccccc2C(=O)C1c1ccc(Br)cc1,"inconclusive: 29.1 µM [activator, single point]"
7,CCOC(=O)c1ccc(CSc2nnc(N)s2)cc1,"inconclusive: 32.6 µM [falling, single point]"
8,COc1cccc(NC(=O)NC2(C(F)(F)F)Oc3ccccc3O2)c1,"inconclusive: 11.6 µM [activator, partial curve, poor fit]"
9,Cc1cccc2sc(NC(=O)C3CCN(C(=O)c4ccco4)CC3)nc12,"inconclusive: 0.651 µM [falling, full curve]"
10,COc1ccc(CC(=O)Nc2c(C(=O)N3CCN(c4ccccc4)CC3)oc3ccccc23)cc1OC,"inconclusive: 25.9 µM [falling, single point]"
11,CC1CCCC(C)N1C(=O)c1ccccc1Nc1ccc(SC(F)F)cc1 (configuration not stated),"inconclusive: 5.8 µM [falling, single point]"
12,Cc1ccnc(NCc2cccc3ccccc23)c1,"inconclusive: 1.3 µM [falling, full curve, poor fit]"
13,O=S(=O)(c1ccc(N2CCN(S(=O)(=O)c3ccccc3)CC2)nc1)N1CCCC1,inactive
14,CCOc1ccccc1NC(=O)C1CCN(S(=O)(=O)c2c(C)noc2/C=C/c2ccco2)CC1,inactive
15,O=C1OCC2=C1C(c1cccc(Cl)c1)CC(=O)N2c1ccc(C(F)(F)F)cc1 (configuration not stated),inactive
16,Cc1ccc(C#N)c(SCc2nnc(-c3ccc(Cl)cc3)o2)n1,"inconclusive: 2.06 µM [activator, partial curve, poor fit]"
17,Cc1ccc(NC(=O)CSCC(=O)NCCc2ccccc2)cc1,"inconclusive: 23.1 µM [activator, single point]"
18,Cc1ccc(C2=NS(=O)(=O)N(C)C(C(=O)Nc3ccc4c(c3)OCO4)=C2)cc1,"inconclusive: 29.1 µM [falling, single point]"
19,CC(C)n1nc(C(=O)Nc2nc3ccccc3[nH]2)c2ccccc2c1=O,"inconclusive: 32.6 µM [falling, partial curve, poor fit]"
20,O=C(NCCc1ccc(Cl)cc1)c1c2c(nc3ccccc13)C(=O)N(C1CCCCC1)C2,"inconclusive: 29.1 µM [falling, single point]"
21,CC(=O)c1c(C)[nH]c(C(=O)Nc2ccc3c(c2)OCCO3)c1C,"inconclusive: 0.651 µM [activator, partial curve]"
